# Source: PubChem BioAssay AID493014 (National Center for Advancing Translational Sciences (NCATS), 2011)
# Where “and” joins values, the source holds several entries; their conditions need not be identical. Equal entries are not always repeated. Some of the results follow. Shown are side measurements of this screen, not its main read-out; they come without a call. The list favours compounds with an active or inconclusive main result. Potencies come from curve fits of mixed quality, noted in brackets.
# Assay: qHTS Assay to Find Inhibitors of Chronic Active B-Cell Receptor Signaling
# Details: ABC-DLBCL IkBa-CBG/CBR reporter, luminescence ratio (green luciferase fused to IkBa over red control in TMD8 lymphoma cells), 4 h
# Method in brief: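 Doxycycline induced both beetle luciferases in TMD8 lymphoma cells; IKK-driven degradation limits the IkappaBalpha-fused green signal, while red luminescence normalises for cell number and nonspecific effects. Compounds tested up to 46 uM, 4 hrs.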
# [1] = measured here: CBR red luminescence, cell number
SMILES,AC50 [1],AC50 (measured here: IkBa-CBG green luminescence)
N=C1/C(=C/c2cccn2-c2cccc([N+](=O)[O-])c2)C(=O)N=C2SC=CN12,"16.4 µM [rising, partial curve, poor fit]",–
COc1cccc(OC)c1OCC(=O)Nc1ccc(S(=O)(=O)N2CCCC2)cc1,"6.51 µM [falling, partial curve, poor fit]",–
COc1cccc(N=c2oc3cc(O)ccc3cc2C(=O)NCC2CCCO2)c1 (stereo unspecified),"0.794 µM [falling, full curve]",–
O=C(c1ccccc1)N1CCN(C2c3cccc4cccc(c34)C2NS(=O)(=O)c2ccccc2)CC1 (stereo unspecified),"0.708 µM [falling, partial curve, poor fit]",–
COc1ccccc1NS(=O)(=O)c1cc(NC(=O)c2ccc(Cl)nc2)ccc1Cl,"23.1 µM [falling, single point]",–
Clc1ccc(-c2cc(CN3CCOCC3)no2)cc1,"14.1 µM [falling, single point]",–
Cc1cc(C)c(NS(=O)(=O)c2ccc3c(c2)NC(=O)CC(=O)N3)c(C)c1,"23.1 µM [rising, single point]",–
O=C(O)c1cccc(Cl)n1,"35.5 µM [rising, partial curve, poor fit]",–
COc1ccc(NC(=O)COC(=O)c2cc([N+](=O)[O-])ccc2N2CCOCC2)cc1,"6.31 µM [rising, single point]",–
COc1cc(CN2CCN(S(=O)(=O)c3ccc(F)cc3)CC2)cc(OC)c1OC,"35.5 µM [rising, partial curve, poor fit]",–
CN(CC(=O)Nc1ccc(N2CCOCC2)cc1)Cc1c(O)ccc2ccccc12,"6.31 µM [falling, partial curve, poor fit]",–
O=C(Nc1cc(C(F)(F)F)ccc1N1CCOCC1)c1c(F)c(F)c(F)c(F)c1F,"0.731 µM [falling, partial curve, poor fit]",–
CC(C)NC(=O)c1cc(-c2cccs2)on1,"14.6 µM [falling, partial curve, poor fit]",–
Cc1cc(C)n2nc(N)c(N=Nc3ccccc3)c2n1,"11.2 µM [falling, partial curve, poor fit]",–
Cc1ccc2nc(SCC(=O)NC(=O)NCc3ccco3)[nH]c2c1,"29.1 µM [falling, single point]",–
CN(CC(=O)Nc1ccccc1F)Cc1cccs1,"4.47 µM [rising, full curve]",–
COc1ccc(CC(=O)N2CCc3cc(OC)c(OC)cc3C2)cc1,"35.5 µM [falling, single point]",–
O=C(Nc1ncc2c(n1)CC(c1ccccc1)CC2=O)c1ccco1 (stereo unspecified),"3.26 µM [rising, partial curve, poor fit]",–
COc1ccc(Cl)cc1NC(=S)N1CCN(C(=O)c2ccco2)CC1,"11.2 µM [rising, partial curve, poor fit]",–
CC(=O)N(C1CC(C)C(C#N)(C#N)C1(C#N)C#N)N(C)C (stereo unspecified),"12.6 µM [falling, partial curve, poor fit]",–
CN(C)CCN(C)Cc1c2ccccc2c(CN(C)CCN(C)C)c2ccccc12,"15.8 µM [falling, single point]",–

# In the list so far, these have a nitro group on carbon:
SMILES,AC50 [1],AC50 (measured here: IkBa-CBG green luminescence)
N=C1/C(=C/c2cccn2-c2cccc([N+](=O)[O-])c2)C(=O)N=C2SC=CN12,"16.4 µM [rising, partial curve, poor fit]",–
COc1ccc(NC(=O)COC(=O)c2cc([N+](=O)[O-])ccc2N2CCOCC2)cc1,"6.31 µM [rising, single point]",–

# The list continues.

SMILES,AC50 [1],AC50 (measured here: IkBa-CBG green luminescence)
NS(=O)(=O)c1ccc(N2N=C(c3ccccc3)CC2c2ccccc2Cl)cc1 (stereo unspecified),"29.1 µM [falling, single point]",–
C/C(=N\NC(=O)C1CC1)c1ccc(Cl)c(Cl)c1,"2.91 µM [rising, partial curve, poor fit]",–
O=C(CCl)Oc1ccc2occ(C(=O)c3cccs3)c2c1,"29.1 µM [falling, single point]",–
Cc1csc(SCC(=O)Nc2ccc(Cl)cn2)n1,"14.1 µM [falling, single point]",–
O=C(NCCc1ccccc1)c1n[nH]c2ccccc12,"3.16 µM [falling, partial curve]",–
CC(OC(=O)Cc1ccccc1[N+](=O)[O-])C(=O)Nc1ccc(Cl)cn1 (stereo unspecified),"25.9 µM [falling, single point]",–
CCNC(=S)NC(=NCc1cccnc1)Nc1nc(C)cc(C)n1,"15.8 µM [rising, single point]",–
O=C(Nc1nc2ccc(Br)cc2s1)c1ccco1,"11.2 µM [falling, partial curve]",–
Cc1cc(C)c2c(CC(=O)NC(C)C)coc2c1,"35.5 µM [rising, single point]",–
O=C(CSc1nnnn1-c1ccc(O)cc1)c1ccc(F)cc1,"0.447 µM [falling, full curve, poor fit]",–
Cc1[nH]nc2c1[C@@H](c1ccccc1[N+](=O)[O-])C(C#N)=C(N)O2,"15.8 µM [falling, single point]",–
COc1ccc(/C=N/Nc2nc(-c3ccc(Cl)cc3)cc(C(F)(F)F)n2)cc1OC,–,"23.1 µM [rising, partial curve, poor fit]"
CC1=NN(c2ccccc2)C(=O)/C1=C\c1ccc(Oc2ccc([N+](=O)[O-])cc2[N+](=O)[O-])cc1,"16.4 µM [falling, partial curve]",–
CC1CCN(c2nc3ccccc3nc2C(C#N)C(=O)NC2CCCCC2)CC1 (stereo unspecified),"4.11 µM [falling, partial curve, poor fit]",–
Cc1ccc(S(=O)(=O)Nc2ccc3c(c2)nc(CCN2CCOCC2)n3C)cc1,"22.4 µM [falling, single point]",–
c1ccc(-c2nc(-c3ccccn3)no2)cc1,"8.2 µM [falling, partial curve]",–
O=C(NCc1ccco1)Nc1ccc(OC(F)(F)F)cc1,"35.5 µM [falling, single point]",–
CC(=O)NC(CC(=O)NC1CCCCC1)c1ccccc1 (stereo unspecified),"0.58 µM [rising, full curve, poor fit]",–
CCCCOc1ccc(CSC2=NCCN2)cc1[N+](=O)[O-],"18.4 µM [falling, partial curve]",–
COc1ccc(Nc2nc(-c3ccccc3F)nc3ccccc23)cc1OC,"7.94 µM [falling, partial curve] and 7.08 µM [falling, partial curve, poor fit]",–
